# According to the supplement of paper PMC12819154, “High-throughput peptide-centric local stability assay extends protein–ligand identification to membrane proteins, tissues and bacteria” (Nature Structural & Molecular Biology, 2025):
# Sequences of proteins named here, by UniProt entry; tags and fusion partners are left off. A change or cut given only in a name is not applied to a line headed by its entry.
# UniProt A6H611: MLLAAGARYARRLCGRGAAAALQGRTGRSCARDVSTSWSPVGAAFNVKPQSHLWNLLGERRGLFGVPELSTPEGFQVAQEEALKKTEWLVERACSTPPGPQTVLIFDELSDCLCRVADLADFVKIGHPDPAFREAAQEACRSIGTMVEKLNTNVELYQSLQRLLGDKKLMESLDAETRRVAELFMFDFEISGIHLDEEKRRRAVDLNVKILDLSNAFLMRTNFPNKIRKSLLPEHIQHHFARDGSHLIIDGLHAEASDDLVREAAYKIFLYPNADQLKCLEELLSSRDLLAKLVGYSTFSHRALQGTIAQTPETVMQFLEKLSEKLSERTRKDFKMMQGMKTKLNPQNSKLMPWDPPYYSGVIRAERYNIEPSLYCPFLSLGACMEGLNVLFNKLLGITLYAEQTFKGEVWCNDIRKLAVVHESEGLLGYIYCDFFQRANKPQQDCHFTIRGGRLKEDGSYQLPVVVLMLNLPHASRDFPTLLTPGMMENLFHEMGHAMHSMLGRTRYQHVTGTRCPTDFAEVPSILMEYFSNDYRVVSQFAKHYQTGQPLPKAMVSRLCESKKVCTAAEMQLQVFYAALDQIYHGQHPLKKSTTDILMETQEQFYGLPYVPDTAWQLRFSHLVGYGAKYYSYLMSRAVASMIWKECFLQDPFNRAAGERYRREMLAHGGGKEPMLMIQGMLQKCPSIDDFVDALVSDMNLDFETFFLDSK
# UniProt B1AXD8, whole entry: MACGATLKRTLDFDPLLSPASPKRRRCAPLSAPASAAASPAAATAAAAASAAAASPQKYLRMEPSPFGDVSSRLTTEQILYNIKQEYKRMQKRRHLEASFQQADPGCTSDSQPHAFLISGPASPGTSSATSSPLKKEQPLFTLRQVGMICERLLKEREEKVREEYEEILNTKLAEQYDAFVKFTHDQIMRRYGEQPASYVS
# UniProt A2ASZ8: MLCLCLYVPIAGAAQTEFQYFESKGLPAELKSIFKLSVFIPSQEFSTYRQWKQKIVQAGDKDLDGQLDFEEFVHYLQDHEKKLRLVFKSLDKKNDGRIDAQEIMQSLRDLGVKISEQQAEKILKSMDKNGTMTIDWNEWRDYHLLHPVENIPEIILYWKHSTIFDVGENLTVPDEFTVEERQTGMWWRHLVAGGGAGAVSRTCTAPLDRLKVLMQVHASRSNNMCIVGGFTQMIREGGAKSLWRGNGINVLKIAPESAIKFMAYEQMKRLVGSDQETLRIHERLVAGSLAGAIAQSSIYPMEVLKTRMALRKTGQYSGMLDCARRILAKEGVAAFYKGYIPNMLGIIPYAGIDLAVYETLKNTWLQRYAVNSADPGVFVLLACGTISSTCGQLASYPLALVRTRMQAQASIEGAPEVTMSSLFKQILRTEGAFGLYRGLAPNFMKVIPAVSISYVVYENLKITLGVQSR
# UniProt A2ARI4, whole entry: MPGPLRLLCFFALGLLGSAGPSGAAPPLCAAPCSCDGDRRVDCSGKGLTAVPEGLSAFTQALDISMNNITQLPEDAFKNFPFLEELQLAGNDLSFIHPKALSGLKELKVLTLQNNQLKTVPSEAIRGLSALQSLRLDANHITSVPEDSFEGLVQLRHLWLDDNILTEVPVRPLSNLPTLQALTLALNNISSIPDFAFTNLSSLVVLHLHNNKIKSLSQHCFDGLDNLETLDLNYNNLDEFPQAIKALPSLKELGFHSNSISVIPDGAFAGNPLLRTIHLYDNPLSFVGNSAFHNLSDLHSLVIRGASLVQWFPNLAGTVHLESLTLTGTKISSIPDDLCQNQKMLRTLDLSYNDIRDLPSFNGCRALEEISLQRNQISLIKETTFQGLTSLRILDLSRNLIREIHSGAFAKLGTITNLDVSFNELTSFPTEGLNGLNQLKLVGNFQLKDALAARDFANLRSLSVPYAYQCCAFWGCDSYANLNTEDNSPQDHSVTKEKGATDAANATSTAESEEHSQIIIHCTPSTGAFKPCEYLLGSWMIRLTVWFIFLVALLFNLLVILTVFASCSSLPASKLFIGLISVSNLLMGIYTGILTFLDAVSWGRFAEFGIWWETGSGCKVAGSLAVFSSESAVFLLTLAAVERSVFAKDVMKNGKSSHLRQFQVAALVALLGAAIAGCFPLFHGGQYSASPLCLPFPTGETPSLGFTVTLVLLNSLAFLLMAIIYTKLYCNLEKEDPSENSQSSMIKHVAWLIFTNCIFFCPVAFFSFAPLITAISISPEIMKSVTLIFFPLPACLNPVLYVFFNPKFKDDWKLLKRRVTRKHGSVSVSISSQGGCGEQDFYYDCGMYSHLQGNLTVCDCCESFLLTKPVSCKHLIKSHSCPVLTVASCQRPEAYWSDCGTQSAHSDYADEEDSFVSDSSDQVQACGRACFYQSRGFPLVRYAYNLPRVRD
# UniProt A2A6Q5, whole entry: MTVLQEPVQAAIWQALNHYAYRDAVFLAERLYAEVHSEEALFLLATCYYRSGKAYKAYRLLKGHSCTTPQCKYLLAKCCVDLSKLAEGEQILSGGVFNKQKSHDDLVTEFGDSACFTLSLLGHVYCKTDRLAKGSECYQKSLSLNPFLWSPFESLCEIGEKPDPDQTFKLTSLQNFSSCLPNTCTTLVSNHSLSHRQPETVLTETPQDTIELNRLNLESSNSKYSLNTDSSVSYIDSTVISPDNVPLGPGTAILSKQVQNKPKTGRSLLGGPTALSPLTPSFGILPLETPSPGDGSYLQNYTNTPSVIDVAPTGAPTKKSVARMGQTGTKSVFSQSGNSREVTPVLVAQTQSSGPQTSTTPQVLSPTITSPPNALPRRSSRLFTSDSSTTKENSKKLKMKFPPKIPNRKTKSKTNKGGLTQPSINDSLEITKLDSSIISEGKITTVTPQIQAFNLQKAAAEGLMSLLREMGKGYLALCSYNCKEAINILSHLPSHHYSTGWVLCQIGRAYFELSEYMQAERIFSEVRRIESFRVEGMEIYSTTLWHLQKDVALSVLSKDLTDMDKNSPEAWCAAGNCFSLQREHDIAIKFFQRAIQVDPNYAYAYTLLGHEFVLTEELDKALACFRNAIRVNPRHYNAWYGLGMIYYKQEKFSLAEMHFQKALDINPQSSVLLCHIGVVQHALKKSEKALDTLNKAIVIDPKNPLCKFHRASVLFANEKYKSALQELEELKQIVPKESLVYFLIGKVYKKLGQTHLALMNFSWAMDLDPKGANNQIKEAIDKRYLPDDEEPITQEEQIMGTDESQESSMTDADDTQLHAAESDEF
# UniProt A2BDX3: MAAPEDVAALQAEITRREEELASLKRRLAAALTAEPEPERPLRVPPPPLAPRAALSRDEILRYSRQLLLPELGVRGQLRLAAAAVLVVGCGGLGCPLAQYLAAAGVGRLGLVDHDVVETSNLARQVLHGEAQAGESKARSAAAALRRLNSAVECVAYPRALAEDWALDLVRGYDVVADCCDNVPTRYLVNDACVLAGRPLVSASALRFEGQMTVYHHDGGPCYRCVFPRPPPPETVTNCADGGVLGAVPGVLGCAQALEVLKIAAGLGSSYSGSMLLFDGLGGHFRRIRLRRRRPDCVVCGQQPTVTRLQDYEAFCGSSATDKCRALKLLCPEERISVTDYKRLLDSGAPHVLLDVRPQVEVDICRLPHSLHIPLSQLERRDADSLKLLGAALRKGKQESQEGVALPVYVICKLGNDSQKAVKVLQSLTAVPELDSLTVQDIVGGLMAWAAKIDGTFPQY
# UniProt A2AG58: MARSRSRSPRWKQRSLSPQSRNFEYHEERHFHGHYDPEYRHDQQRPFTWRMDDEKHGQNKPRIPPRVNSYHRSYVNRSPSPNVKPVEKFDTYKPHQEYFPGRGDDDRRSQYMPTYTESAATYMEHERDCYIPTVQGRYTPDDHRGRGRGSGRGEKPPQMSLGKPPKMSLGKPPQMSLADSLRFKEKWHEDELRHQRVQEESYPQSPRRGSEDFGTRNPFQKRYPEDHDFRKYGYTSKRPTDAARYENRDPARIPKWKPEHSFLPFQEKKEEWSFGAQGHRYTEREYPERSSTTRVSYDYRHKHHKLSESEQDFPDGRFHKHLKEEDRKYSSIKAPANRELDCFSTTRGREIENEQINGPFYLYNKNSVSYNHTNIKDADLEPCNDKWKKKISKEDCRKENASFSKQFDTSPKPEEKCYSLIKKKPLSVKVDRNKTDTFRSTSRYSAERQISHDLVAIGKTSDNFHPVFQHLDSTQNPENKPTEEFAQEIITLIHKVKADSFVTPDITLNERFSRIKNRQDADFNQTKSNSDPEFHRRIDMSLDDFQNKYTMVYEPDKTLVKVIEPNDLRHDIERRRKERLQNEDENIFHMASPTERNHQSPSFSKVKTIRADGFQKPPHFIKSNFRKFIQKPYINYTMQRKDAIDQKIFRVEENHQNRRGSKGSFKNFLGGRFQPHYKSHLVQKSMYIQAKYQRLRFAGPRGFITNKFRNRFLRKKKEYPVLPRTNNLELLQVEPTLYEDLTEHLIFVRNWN
# UniProt A2ARA8: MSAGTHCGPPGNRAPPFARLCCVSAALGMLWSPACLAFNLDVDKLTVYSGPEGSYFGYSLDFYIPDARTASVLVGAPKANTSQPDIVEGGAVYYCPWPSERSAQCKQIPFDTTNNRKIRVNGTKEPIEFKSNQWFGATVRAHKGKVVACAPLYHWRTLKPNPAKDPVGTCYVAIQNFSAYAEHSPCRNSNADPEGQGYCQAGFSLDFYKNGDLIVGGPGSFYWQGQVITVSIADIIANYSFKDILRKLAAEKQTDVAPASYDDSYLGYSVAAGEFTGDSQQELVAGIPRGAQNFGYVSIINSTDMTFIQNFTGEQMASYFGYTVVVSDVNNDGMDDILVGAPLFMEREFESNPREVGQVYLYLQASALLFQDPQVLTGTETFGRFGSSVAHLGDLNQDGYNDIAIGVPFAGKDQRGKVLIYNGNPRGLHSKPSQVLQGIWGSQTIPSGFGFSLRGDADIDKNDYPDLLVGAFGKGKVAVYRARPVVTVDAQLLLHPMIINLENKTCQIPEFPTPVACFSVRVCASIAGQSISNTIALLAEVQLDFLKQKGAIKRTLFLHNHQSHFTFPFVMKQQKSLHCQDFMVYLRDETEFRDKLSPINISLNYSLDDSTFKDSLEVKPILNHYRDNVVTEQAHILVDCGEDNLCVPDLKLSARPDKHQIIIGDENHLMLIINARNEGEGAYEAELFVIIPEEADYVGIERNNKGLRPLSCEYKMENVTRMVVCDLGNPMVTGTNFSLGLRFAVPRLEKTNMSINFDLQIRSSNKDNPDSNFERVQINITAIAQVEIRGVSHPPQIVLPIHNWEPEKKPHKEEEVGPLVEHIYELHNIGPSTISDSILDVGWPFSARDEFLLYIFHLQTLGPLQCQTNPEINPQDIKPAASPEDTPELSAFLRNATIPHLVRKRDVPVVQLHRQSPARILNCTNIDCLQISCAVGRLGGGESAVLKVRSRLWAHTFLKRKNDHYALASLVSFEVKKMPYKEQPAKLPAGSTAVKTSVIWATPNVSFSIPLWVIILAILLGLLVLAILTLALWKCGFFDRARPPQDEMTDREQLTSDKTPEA
# UniProt A2AS89: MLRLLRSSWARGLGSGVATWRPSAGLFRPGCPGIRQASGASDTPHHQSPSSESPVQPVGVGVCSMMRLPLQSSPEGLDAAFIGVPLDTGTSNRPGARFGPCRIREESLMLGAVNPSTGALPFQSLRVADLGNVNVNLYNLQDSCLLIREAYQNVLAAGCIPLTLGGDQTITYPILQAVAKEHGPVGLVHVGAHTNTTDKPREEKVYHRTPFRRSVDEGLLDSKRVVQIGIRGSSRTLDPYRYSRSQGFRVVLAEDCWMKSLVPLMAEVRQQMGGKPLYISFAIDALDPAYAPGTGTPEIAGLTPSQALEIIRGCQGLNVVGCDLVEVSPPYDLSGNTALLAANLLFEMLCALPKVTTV
# UniProt A2RSY6: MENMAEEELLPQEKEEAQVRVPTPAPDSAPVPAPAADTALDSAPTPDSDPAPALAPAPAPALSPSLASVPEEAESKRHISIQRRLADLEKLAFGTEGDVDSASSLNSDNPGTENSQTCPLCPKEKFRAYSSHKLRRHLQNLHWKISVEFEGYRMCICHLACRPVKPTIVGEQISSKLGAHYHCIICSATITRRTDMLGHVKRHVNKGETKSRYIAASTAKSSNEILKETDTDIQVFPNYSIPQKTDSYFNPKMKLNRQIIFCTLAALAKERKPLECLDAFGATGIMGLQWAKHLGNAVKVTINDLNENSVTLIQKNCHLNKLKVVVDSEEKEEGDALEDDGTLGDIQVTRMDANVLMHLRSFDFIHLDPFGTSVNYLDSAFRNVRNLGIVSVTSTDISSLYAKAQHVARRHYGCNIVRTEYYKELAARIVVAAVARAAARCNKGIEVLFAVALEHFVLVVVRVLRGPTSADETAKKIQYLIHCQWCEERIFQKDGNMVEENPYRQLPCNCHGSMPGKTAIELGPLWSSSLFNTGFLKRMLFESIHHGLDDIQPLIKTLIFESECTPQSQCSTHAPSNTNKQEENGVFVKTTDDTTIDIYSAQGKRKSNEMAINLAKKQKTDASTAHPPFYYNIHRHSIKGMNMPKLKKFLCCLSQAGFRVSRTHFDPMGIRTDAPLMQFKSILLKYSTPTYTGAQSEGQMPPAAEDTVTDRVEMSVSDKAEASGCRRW
# Some of the results follow. Most entries show no effect beyond the scatter of the controls.
# Compound: CN[C@@H]1C[C@H]2O[C@@](C)([C@@H]1OC)n1c3ccccc3c3c4c(c5c6ccccc6n2c5c31)C(=O)NC4 [staurosporine]
# Experiment: log2 fold change of tryptic peptide abundance, ligand vs vehicle (limited proteolysis) (log2 ratio); higher = more trypsin-susceptible (destabilized)
# Conditions: ligand concentration: 20 uM; sample: mouse liver crude lysate; replicate design: treated separately
row,Target,log2 fold change
1,"UniProt B2RU80 (peptide sequence: DRPLSVHLNLGQK, peptide start residue: 1663)",-0.355
2,"UniProt A2AIW0 (peptide sequence: TLQISYEALKDENSK, peptide start residue: 264)",0.315
3,"UniProt B2RS91 (peptide sequence: FGGTVTEVLLK, peptide start residue: 50)",-0.269
4,"UniProt A4UUI3 (peptide sequence: IKTLREGIK, peptide start residue: 284)",-0.497
5,"UniProt B2RQC2 (peptide sequence: AALSVQDSSHSLPER, peptide start residue: 1144)",0.693
6,"A0A0B4J1G0 (peptide sequence: IQWSKEPQDK, peptide start residue: 240), A0A0B4J1G0",-0.259
7,"UniProt A2AUY4 (peptide sequence: ALQKQIQK, peptide start residue: 1663)",-0.799
8,"A0A1W2P884 (peptide sequence: LTEALLENQR, peptide start residue: 669), A0A1W2P884",-0.226
9,"UniProt A6H611 (peptide sequence: MMQGMKTK, peptide start residue: 336)",0.297
10,"UniProt A6H584 (peptide sequence: GDTLPHGLR, peptide start residue: 2217)",0.166
11,"UniProt B1AXD8 (peptide sequence: LAEQYDAFVK, peptide start residue: 173)",0.099
12,"UniProt A2A9C3 (peptide sequence: AAAHIHSSSGRPTCLR, peptide start residue: 1722)",0.809
13,"UniProt A2ASZ8 (peptide sequence: ITLGVQSR, peptide start residue: 462)",-0.398
14,"UniProt A2ARI4 (peptide sequence: YAYNLPR, peptide start residue: 942)",-0.00197
15,"UniProt A2AGT5 (peptide sequence: DQVLAMLEK, peptide start residue: 1067)",-0.338
16,"UniProt A2AF47 (peptide sequence: AENIMASLER, peptide start residue: 300)",-0.0943
17,"UniProt A2AQ25 (peptide sequence: TLDSLEQTIK, peptide start residue: 1667)",-0.191
18,"UniProt A2APY7 (peptide sequence: LNDVMSHEK, peptide start residue: 334)",-0.167

# 3 entries picked at random from the list so far, as already listed:
row,Target,log2 fold change
12,"UniProt A2A9C3 (peptide sequence: AAAHIHSSSGRPTCLR, peptide start residue: 1722)",0.809
3,"UniProt B2RS91 (peptide sequence: FGGTVTEVLLK, peptide start residue: 50)",-0.269
4,"UniProt A4UUI3 (peptide sequence: IKTLREGIK, peptide start residue: 284)",-0.497

# Remaining list, next part.

row,Target,log2 fold change
1,"UniProt A2BH40 (peptide sequence: SPFLHSGMK, peptide start residue: 1605)",0.205
2,"UniProt A2AWL7 (peptide sequence: HNKVDNLEADHPSYK, peptide start residue: 429)",-0.731
3,"UniProt A2AG50 (peptide sequence: KSDASLEVK, peptide start residue: 599)",-0.178
4,"UniProt A2A6Q5 (peptide sequence: LDSSIISEGK, peptide start residue: 433)",0.289
5,"UniProt A2BDX3 (peptide sequence: FEGQMTVYHHDGGPCYR, peptide start residue: 208)",0.254
6,"UniProt A2AG58 (peptide sequence: QDADFNQTK, peptide start residue: 519)",0.426
7,"UniProt A2AQ19 (peptide sequence: FNDQDIEEIVKEKER, peptide start residue: 492)",-0.554
8,"UniProt A2ASQ1 (peptide sequence: GHQLLTQEHVLR, peptide start residue: 1681)",0.109
9,"UniProt A2A8U2 (peptide sequence: IKQLAAFTPR, peptide start residue: 132)",0.522
10,"UniProt A2A5K6 (peptide sequence: ELGATALQVAVVK, peptide start residue: 807)",0.0786
11,"UniProt A2AAY5 (peptide sequence: NDMGLECGHK, peptide start residue: 589)",0.299
12,"UniProt A2ARA8 (peptide sequence: DVPVVQLHR, peptide start residue: 906)",0.077
13,"UniProt A2AS89 (peptide sequence: SVDEGLLDSK, peptide start residue: 214)",0.154
14,"UniProt B1AVZ0 (peptide sequence: QVNSTSSPSPEHLLAEDR, peptide start residue: 17)",0.404
15,"UniProt A1IGU4 (peptide sequence: GYVPSNFLAR, peptide start residue: 654)",-0.239
16,"UniProt A3KGF9 (peptide sequence: TPSAEEEFVQK, peptide start residue: 373)",0.778
17,"UniProt A2RSY6 (peptide sequence: HLQNLHWK, peptide start residue: 137)",0.768
